From PMC5177899
These are yes or no findings as the source states them, for the method shown. Binding seen in cells or lysates may run through a third protein. Binding calls can cover weak binding; strength is not graded here.

Sequences of proteins named here, by UniProt entry; tags and fusion partners are left off. A change or cut given only in a name is not applied to a line headed by its entry.
UniProt O60500: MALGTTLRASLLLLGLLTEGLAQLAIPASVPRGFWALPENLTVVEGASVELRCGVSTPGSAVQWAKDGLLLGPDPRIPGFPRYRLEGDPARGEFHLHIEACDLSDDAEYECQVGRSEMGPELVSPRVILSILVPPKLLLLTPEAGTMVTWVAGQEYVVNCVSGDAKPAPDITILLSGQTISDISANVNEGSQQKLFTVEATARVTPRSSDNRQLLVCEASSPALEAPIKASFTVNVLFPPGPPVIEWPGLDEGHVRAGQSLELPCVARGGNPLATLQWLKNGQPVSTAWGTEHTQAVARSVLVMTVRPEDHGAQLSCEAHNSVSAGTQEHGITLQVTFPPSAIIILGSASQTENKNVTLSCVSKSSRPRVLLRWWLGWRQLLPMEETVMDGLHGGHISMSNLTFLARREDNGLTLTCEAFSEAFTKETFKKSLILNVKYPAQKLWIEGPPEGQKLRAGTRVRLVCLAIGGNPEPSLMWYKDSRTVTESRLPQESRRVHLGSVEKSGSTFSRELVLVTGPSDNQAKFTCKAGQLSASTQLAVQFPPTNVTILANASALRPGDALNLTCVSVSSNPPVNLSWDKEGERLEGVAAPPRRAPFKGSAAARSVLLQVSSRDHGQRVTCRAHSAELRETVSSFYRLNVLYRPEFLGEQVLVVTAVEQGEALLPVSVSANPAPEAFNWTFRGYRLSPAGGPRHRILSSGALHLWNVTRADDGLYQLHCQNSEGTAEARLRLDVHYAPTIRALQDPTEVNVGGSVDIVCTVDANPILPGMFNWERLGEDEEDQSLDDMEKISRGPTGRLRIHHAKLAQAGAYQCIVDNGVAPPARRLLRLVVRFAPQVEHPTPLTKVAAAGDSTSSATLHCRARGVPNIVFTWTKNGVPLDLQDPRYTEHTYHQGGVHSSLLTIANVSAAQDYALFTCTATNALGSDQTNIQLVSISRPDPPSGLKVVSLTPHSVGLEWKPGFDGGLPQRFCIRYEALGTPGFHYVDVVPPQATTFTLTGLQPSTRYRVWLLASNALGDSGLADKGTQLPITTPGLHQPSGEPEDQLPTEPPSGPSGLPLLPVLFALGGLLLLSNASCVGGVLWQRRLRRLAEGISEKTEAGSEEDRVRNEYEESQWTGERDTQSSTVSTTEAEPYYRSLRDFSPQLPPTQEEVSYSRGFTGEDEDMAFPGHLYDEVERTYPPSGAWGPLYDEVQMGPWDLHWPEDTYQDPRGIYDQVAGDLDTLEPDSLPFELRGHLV
UniProt P29067: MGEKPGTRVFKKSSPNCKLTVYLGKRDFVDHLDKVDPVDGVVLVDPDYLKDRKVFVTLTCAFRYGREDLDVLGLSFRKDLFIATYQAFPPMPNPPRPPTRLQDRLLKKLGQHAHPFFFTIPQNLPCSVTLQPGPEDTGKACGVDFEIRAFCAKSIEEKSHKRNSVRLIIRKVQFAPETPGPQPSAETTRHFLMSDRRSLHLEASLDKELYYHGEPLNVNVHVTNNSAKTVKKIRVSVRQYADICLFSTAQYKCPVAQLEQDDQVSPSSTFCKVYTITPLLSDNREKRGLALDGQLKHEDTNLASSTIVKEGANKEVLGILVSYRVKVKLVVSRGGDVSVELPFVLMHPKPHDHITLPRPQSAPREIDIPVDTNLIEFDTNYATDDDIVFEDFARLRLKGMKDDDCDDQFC
UniProt O43639: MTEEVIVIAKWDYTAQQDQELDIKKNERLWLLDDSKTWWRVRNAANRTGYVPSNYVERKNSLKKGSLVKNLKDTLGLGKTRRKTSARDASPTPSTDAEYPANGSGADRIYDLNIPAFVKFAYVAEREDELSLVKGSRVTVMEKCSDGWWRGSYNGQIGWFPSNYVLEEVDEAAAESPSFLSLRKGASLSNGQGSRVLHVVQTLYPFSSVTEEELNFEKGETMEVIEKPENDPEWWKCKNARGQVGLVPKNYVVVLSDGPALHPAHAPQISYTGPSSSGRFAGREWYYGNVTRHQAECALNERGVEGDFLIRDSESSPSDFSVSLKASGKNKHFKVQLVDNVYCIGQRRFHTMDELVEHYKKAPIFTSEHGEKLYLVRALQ

Key:
[1] = target: Y1217A nephrin mutant (C-terminal cytoplasmic domain fusion protein) (human) (UniProt O60500); experiment: co-IP; HEK293T transiently transfected (Ig.nephrin fusion, partner, AT1 receptor), with or without Ang II (1 μM, up to 60 min) and inhibitors (candesartan, PP2, PTX, Ly294002, U73122) or GNAQ siRNA; 1% Triton X-100 lysate, protein G sepharose 1 h at 4 °C; Western blot
[2] = target: Y1217D nephrin mutant (C-terminal cytoplasmic domain fusion protein) (human) (UniProt O60500); experiment: as above

| binding [1] | binding [2] | Substance |
| --- | --- | --- |
| binds | binds | FLAG-tagged β-arrestin2 (from UniProt P29067 1-410) |
| binds | binds | Nck2 (from UniProt O43639 1-380) |
